In PubChem BioAssay AID248 (DTP/NCI, 2004):
The list shows only some results of the screen, not a fair sample: it is rich in T/C values a quarter to a half above the control, in often repeated tests (any T/C) and in doses without a T/C. Other doses and runs of a compound stand elsewhere. T/C is the treated group as % of the vehicle group. Some doses have a count of surviving animals in place of a T/C: the source holds a T/C of zero for them, seemingly a mark for toxic or unscored doses. Some survivor counts are full or nearly so, which does not show that the dose was tolerated: survival well below the control is almost never listed, so the zero probably covers shortened survival too. Survivors were counted at the toxicity check, usually on the fifth day, unless a day is given; later deaths do not show. Schedule codes are those of the source, read here as Q, the interval in days (D) or hours (H), X, the number of doses. Some entries were tested several times; their values stand side by side, smallest first. Some schedule codes hold Z or #, which are not explained here. Some molecules as drawn cover several salts, stereoisomers or complexes of the source; a dose is that of the sample tested. Where survival is the endpoint, the PubChem record calls one and a half times the control and up active, and a quarter to a half above the control has no call in these data; cut-offs in other NCI protocols can differ.

System: L1210 leukemia ip in BDF1 mice, survival T/C
Assay: NCI In Vivo Anticancer Drug Screen. Data for tumor model L1210 Leukemia (intraperitoneal) in B6D2F1 (BDF1) mice
Conditions: T/C endpoint: mean survival time, higher T/C = longer survival
[1] = dose: 400.0 mg/kg/injection, schedule: Q04DX003 (ip), vehicle: Klucel (hydroxypropylcellulose) (HPC)
[2] = dose: 100.0 mg/kg/injection, schedule: Q01DX009 (ip), vehicle: other
[3] = dose: 400.0 mg/kg/injection, schedule: Q04DX003 (ip), vehicle: saline
[4] = dose: 100.0 mg/kg/injection, schedule: Q01DX001 (ip), vehicle: saline
[5] = dose: 300.0 mg/kg/injection, schedule: Q01DX001 (ip), vehicle: carboxymethylcellulose (CMC)
[6] = dose: 100.0 mg/kg/injection, schedule: Q01DX009 (ip), vehicle: saline with Tween-80
[7] = dose: 200.0 mg/kg/injection, schedule: Q01DX009 (ip), vehicle: saline with Tween-80
[8] = dose: 50.0 mg/kg/injection, schedule: Q01DX009 (ip), vehicle: saline with Tween-80
[9] = dose: 100.0 mg/kg/injection, schedule: Q04DX002 (ip), vehicle: saline with Tween-80
[10] = dose: 400.0 mg/kg/injection, schedule: Q01DX009 (ip), vehicle: saline with Tween-80
[11] = dose: 400.0 mg/kg/injection, schedule: Q04DX002 (ip), vehicle: saline with Tween-80

With CC[N+](C)(CC)CCNC(=O)Nc1ccc(C)c(NC(=O)NCC[N+](C)(CC)CC)c1 the survivor count (dose: 6.25 mg/kg/injection, schedule: Q01DX009 (ip), vehicle: saline) was 0 of 6, the survivor count (dose: 6.25 mg/kg/injection, schedule: Q04DX002 (ip), vehicle: saline) was 1 of 3 and the survivor count (dose: 12.5 mg/kg/injection, schedule: Q04DX002 (ip), vehicle: saline) was 0 of 3 and 1 of 3. The survivor count (dose: 25.0 mg/kg/injection, schedule: Q04DX002 (ip), vehicle: saline) was 0 of 3, the survivor count (dose: 50.0 mg/kg/injection, schedule: Q04DX002 (ip), vehicle: saline) was 0 of 3 and the survivor count (dose: 100.0 mg/kg/injection, schedule: Q04DX002 (ip), vehicle: saline) was 0 of 3. The survivor count (dose: 200.0 mg/kg/injection, schedule: Q04DX002 (ip), vehicle: saline) was 0 of 3 and the survivor count (dose: 400.0 mg/kg/injection, schedule: Q04DX002 (ip), vehicle: saline) was 0 of 3.
For O=C(Nc1ccc(Nc2ccccc2)cc1)Nc1cccc2ccccc12, the survivor count [1] was 5 of 6.
With Nc1[nH]nc2nc(-c3ccc(Cl)cc3)cnc12 the survivor count (dose: 400.0 mg/kg/injection, schedule: Q04DX003 (ip), vehicle: saline with Tween-80) was 6 of 6.
CN(C)NCC(O)COc1ccc(Cl)cc1 (stereo not drawn) was tested, and the survivor count (dose: 400.0 mg/kg/injection, schedule: Q04DX002 (ip), vehicle: Klucel (hydroxypropylcellulose) (HPC)) was 0 of 3.
In the case of NC(CSC(c1ccccc1)(c1ccccc1)c1ccc(Cl)cc1)C(=O)O (stereo not drawn), the T/C (dose: 3.13 mg/kg/injection, schedule: Q01DX009 (ip), vehicle: acetone) is reported as 139 % of control, the T/C (dose: 6.3 mg/kg/injection, schedule: Q01DX009 (ip), vehicle: other) is reported as 147 % of control and the survivor count (dose: 25.0 mg/kg/injection, schedule: Q01DX009 (ip), vehicle: acetone) is reported as 6 of 6. For the same molecule, the T/C (dose: 25.0 mg/kg/injection, schedule: Q01DX009 (ip), vehicle: other) was 143 % of control, the survivor count (dose: 50.0 mg/kg/injection, schedule: Q01DX009 (ip), vehicle: acetone) was 4 of 6 and the survivor count (dose: 50.0 mg/kg/injection, schedule: Q01DX009 (ip), vehicle: other) was 4 of 6. For the same molecule, the survivor count [2] was 4 of 6.
COc1cc2c(cc1OC)C(C#N)C2 (stereo not drawn) was tested, and the survivor count (dose: 25.0 mg/kg/injection, schedule: Q01DX009 (ip), vehicle: Klucel (hydroxypropylcellulose) (HPC)) was 3 of 6, the survivor count (dose: 25.0 mg/kg/injection, schedule: Q04DX003 (ip), vehicle: Klucel (hydroxypropylcellulose) (HPC)) was 6 of 6 and the survivor count (dose: 50.0 mg/kg/injection, schedule: Q01DX009 (ip), vehicle: Klucel (hydroxypropylcellulose) (HPC)) was 3 of 6. The survivor count (dose: 100.0 mg/kg/injection, schedule: Q01DX009 (ip), vehicle: Klucel (hydroxypropylcellulose) (HPC)) was 0 of 6, the survivor count (dose: 100.0 mg/kg/injection, schedule: Q04DX003 (ip), vehicle: Klucel (hydroxypropylcellulose) (HPC)) was 0 of 6 and the survivor count (dose: 200.0 mg/kg/injection, schedule: Q04DX003 (ip), vehicle: Klucel (hydroxypropylcellulose) (HPC)) was 0 of 6. The survivor count [1] was 0 of 6.
With O=C1CSC2=NCCN12 the survivor count [3] was 0 of 6.
O=C(N/N=C/c1cc(Cl)ccc1[N+](=O)[O-])c1cccc2ccccc12 was tested, and the survivor count [4] was 4 of 4.
In the case of CN=C(N)NN, the T/C (dose: 15.0 mg/kg/injection, schedule: Q01DX Z (ip), vehicle: methylcellulose (MC)) is reported as 130 % of control, the survivor count (dose: 250.0 mg/kg/injection, schedule: Q01DX Z (oral), vehicle: methylcellulose (MC)) is reported as 2 of 6 and the survivor count (dose: 500.0 mg/kg/injection, schedule: Q01DX Z (oral), vehicle: methylcellulose (MC)) is reported as 3 of 6. For the same molecule, the survivor count (dose: 1000.0 mg/kg/injection, schedule: Q01DX Z (oral), vehicle: methylcellulose (MC)) was 3 of 6 and the survivor count (dose: 2000.0 mg/kg/injection, schedule: Q01DX Z (oral), vehicle: methylcellulose (MC)) was 0 of 6.
For CCCCCCCCCCCCn1cnc2ncnc(Cl)c21, the survivor count (dose: 200.0 mg/kg/injection, schedule: Q01DX005 (ip), vehicle: other) was 4 of 6.
For CCCCCCCCCCCCCCCC[N+]1(Cc2ccccc2)CCOCC1, the survivor count (dose: 200.0 mg/kg/injection, schedule: Q01DX009 (ip), vehicle: Klucel (hydroxypropylcellulose) (HPC)) was 3 of 3.
With N#CCN1Cc2ccccc2CCc2ccccc2C1 the survivor count [1] was 2 of 6.
Cn1c(O)c(C=N)c(=O)n(C)c1=O was tested, and the survivor count (dose: 200.0 mg/kg/injection, schedule: Q04DX003 (ip), vehicle: saline) was 3 of 6 and the survivor count [3] was 0 of 6.
O=NN(C(=O)Nc1ccccc1)c1ccccc1 was tested, and the survivor count (dose: 200.0 mg/kg/injection, schedule: Q01DX001 (ip), vehicle: carboxymethylcellulose (CMC)) was 0 of 6, the survivor count [5] was 0 of 6 and the survivor count (dose: 400.0 mg/kg/injection, schedule: Q01DX001 (ip), vehicle: carboxymethylcellulose (CMC)) was 0 of 6. The survivor count (dose: 500.0 mg/kg/injection, schedule: Q01DX001 (ip), vehicle: carboxymethylcellulose (CMC)) was 0 of 6, the survivor count (dose: 600.0 mg/kg/injection, schedule: Q01DX001 (ip), vehicle: carboxymethylcellulose (CMC)) was 0 of 6 and the survivor count (dose: 700.0 mg/kg/injection, schedule: Q01DX001 (ip), vehicle: carboxymethylcellulose (CMC)) was 0 of 6. For the same molecule, the survivor count (dose: 800.0 mg/kg/injection, schedule: Q01DX001 (ip), vehicle: carboxymethylcellulose (CMC)) was 0 of 6 and the survivor count (dose: 1000.0 mg/kg/injection, schedule: Q01DX001 (ip), vehicle: carboxymethylcellulose (CMC)) was 0 of 6.
For CSc1ccc(NC(=O)Nc2c(C)cc(C)cc2C)cc1, the survivor count [2] was 0 of 6, the survivor count (dose: 200.0 mg/kg/injection, schedule: Q01DX009 (ip), vehicle: other) was 3 of 6 and the survivor count (dose: 400.0 mg/kg/injection, schedule: Q01DX009 (ip), vehicle: other) was 0 of 6.
For CC(C)(CO)COS(=O)(=O)c1ccc(Br)cc1, the survivor count [6] was 3 of 3 and the survivor count [7] was 3 of 3.
In the case of CCOc1ccccc1NCN1C(=O)c2ccccc2C1=O, the survivor count (dose: 25.0 mg/kg/injection, schedule: Q01DX009 (ip), vehicle: saline with Tween-80) is reported as 6 of 6, the survivor count [8] is reported as 6 of 6 and the survivor count [9] is reported as 3 of 3. The survivor count [7] was 6 of 6 and the survivor count [10] was 6 of 6.
CN(C)CCCn1c2nc(=O)[nH]c(=O)c-2nc2cc(Cl)c(Cl)cc21 was tested, and the survivor count (dose: 8.0 mg/kg/injection, schedule: Q01DX Z (ip), vehicle: methylcellulose (MC)) was 0 of 7.
Cc1c(NC(=O)Nc2cccc(Cl)c2)nc(Br)c2ccccc12 was tested, and the survivor count [11] was 1 of 3.
CC(C)=NC(=O)NO.[Cl][Zn][Cl] was tested, and the survivor count (dose: 75.0 mg/kg/injection, schedule: Q01DX001 (ip), vehicle: carboxymethylcellulose (CMC)) was 2 of 6, the survivor count (dose: 150.0 mg/kg/injection, schedule: Q01DX001 (ip), vehicle: carboxymethylcellulose (CMC)) was 0 of 6 and the survivor count [5] was 0 of 6.
CCCC(C)NCCOC(=O)Nc1ccccc1 (stereo not drawn) was tested, and the survivor count (dose: 300.0 mg/kg/injection, schedule: Q01DX001 (ip), vehicle: saline) was 0 of 6.
In the case of Cc1nc(N)c(Cl)nc1C, the survivor count [10] is reported as 6 of 6.
CCCCN1C(=O)C=CC1=O was tested, and the survivor count [8] was 0 of 3, the survivor count [6] was 0 of 3 and the survivor count [7] was 0 of 3.
In the case of Cc1c(Cl)cccc1NC(=O)N(C)Cc1ccccc1, the T/C [6] is reported as 97, 113, 118, 119 % of control, the T/C [7] is reported as 106, 108, 118, 132 % of control and the T/C [10] is reported as 100, 103, 118, 121 % of control.
With CC(C)(C)c1cc([N+](C)(C)C)cc(C(C)(C)C)n1 the survivor count [4] was 1 of 3, the survivor count [9] was 0 of 3 and the survivor count (dose: 200.0 mg/kg/injection, schedule: Q01DX001 (ip), vehicle: saline) was 0 of 3. For the same molecule, the survivor count (dose: 200.0 mg/kg/injection, schedule: Q04DX002 (ip), vehicle: saline with Tween-80) was 0 of 3 and the survivor count [11] was 0 of 3.
